Source: paper PMC7521923
Results are given in words; binding and its absence hold for the method and conditions named. Binding seen in cells or lysates may run through a third protein. Some results given as binding are weak or reduced against the parent protein; the word gives no strength.

The chains behind the UniProt entries cited, without tags or fusion partners. Residues count along the entry.
UniProt Q13467, residues 27-585: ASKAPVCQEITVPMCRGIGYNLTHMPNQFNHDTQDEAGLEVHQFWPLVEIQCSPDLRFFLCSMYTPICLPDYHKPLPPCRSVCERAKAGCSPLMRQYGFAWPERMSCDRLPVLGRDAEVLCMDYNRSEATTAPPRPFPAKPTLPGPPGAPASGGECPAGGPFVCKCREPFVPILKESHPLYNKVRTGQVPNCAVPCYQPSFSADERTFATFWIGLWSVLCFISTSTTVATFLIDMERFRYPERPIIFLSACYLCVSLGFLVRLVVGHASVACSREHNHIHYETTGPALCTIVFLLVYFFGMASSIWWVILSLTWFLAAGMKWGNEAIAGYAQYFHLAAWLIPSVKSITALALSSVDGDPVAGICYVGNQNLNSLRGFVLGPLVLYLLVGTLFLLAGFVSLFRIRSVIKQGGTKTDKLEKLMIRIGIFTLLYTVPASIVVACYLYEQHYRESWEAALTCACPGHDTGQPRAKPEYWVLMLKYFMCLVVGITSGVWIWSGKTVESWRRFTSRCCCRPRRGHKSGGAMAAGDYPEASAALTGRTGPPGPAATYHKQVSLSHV

Target: T1, USP8 (UniProt P40818)
T1 sequence: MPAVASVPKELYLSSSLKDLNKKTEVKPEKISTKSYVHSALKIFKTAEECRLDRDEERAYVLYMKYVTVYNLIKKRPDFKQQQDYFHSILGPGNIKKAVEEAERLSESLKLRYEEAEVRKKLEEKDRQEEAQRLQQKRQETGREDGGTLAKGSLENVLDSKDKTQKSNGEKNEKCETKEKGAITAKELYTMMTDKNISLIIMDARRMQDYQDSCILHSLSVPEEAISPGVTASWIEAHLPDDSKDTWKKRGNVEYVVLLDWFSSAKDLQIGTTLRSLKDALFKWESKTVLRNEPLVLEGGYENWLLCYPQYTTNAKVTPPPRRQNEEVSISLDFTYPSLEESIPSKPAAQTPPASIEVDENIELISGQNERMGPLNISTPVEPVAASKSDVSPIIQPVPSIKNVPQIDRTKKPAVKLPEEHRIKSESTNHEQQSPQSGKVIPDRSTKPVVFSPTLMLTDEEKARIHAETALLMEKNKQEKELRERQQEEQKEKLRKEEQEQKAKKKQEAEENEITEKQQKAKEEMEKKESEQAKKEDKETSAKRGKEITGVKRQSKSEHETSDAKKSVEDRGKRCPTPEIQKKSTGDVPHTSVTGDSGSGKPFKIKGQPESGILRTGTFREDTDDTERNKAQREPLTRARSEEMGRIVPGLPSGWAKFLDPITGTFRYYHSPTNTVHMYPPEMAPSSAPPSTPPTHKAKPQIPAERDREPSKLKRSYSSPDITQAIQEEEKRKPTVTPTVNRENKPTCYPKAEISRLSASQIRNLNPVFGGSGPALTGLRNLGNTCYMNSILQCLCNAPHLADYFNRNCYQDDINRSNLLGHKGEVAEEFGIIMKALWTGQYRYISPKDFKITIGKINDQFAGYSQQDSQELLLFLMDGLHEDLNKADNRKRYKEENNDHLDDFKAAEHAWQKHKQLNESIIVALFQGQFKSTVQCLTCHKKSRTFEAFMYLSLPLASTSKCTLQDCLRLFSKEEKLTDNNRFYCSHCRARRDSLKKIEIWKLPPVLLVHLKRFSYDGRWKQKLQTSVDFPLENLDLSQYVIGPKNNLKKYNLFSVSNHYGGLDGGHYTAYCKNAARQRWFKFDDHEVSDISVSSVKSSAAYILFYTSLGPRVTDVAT
Assay: co-IP; both partners expressed in transfected HEK293T cells (FZD5-USP8 also in T79KO cells and with TMEM79 overexpressed; USP8-TMEM79 in FZD null cells); NP40 lysis buffer (50 mM Tris pH 7.5, 150 mM NaCl, 1 mM EDTA, 1% NP40, 10% glycerol, 10 mM NaF); antibody-conjugated agarose beads (anti-c-Myc, anti-HA, anti-Flag M2 or anti-V5) at 4°C overnight; five washes; immunoblot

FZD5 (transfected) (from UniProt Q13467 27-585) (receptor)
binding: binds
